Results reported in PubChem BioAssay AID344 (DTP/NCI, 2004).
The list shows only some results of the screen, not a fair sample: it gathers some chemical classes. Not every dose and run of a compound is shown. T/C gives the treated animals as a percentage of the vehicle group. Some doses have a count of surviving animals in place of a T/C: the source holds a T/C of zero for them, seemingly a mark for toxic or unscored doses. Counts of survivors are from the toxicity check (mostly the fifth day) where no day follows; animals may have died later. Schedule codes are those of the source, taken here to give the interval after Q, in days (D) or hours (H), and the number of doses after X. Where survival is the endpoint, this PubChem deposit counts one and a half times the control or more as active, and values a quarter to a half above the control carry no call in these data; other NCI protocols may use other cut-offs. Some T/C values are followed by the survivors on the day toxicity was checked, most often the fifth; where neither a count nor a note follows, no animal had died by that day.

Tested on: mice, LPC-1 plasma cell tumor ip, median survival T/C
Test: NCI In Vivo Anticancer Drug Screen. Data for tumor model Lieberman Plasma Cell No. 1 (LPC-1) (intraperitoneal) in unknown mice
Conditions: T/C endpoint: median survival time, higher T/C = longer survival
Method: The antitumor activity of compounds was measured in mice bearing transplantable tumors. Survival or tumor size were measured and the results are expressed as the measurement made in the treated group (T) divided by the measurement made in the vehicle treated control group (C). The tumor model used in this assay is Lieberman Plasma Cell No. 1 (LPC-1) (intraperitoneal) in unknown mice

## NC(Cc1ccc(N(CCF)CCCl)cc1)C(=O)O (stereo unspecified)
dose: 10.0 mg/kg/injection, schedule: Q01DX028 (sc), vehicle: saline
  T/C: 146 % of control [6 of 8 alive]
dose: 20.0 mg/kg/injection, schedule: Q01DX028 (sc), vehicle: saline
  T/C: 116 % of control [7 of 8 alive]
dose: 40.0 mg/kg/injection, schedule: Q01DX028 (sc), vehicle: saline
  survivor count: 5 of 8
dose: 80.0 mg/kg/injection, schedule: Q01DX028 (sc), vehicle: saline
  T/C: 113 % of control [7 of 8 alive]

## O=P1(N(CCCl)CCCl)OCC2CCCN21 (stereo unspecified)
dose: 31.25 mg/kg/injection, schedule: Q01DX010 (sc), vehicle: saline
  T/C: 111 % of control
dose: 62.5 mg/kg/injection, schedule: Q01DX010 (sc), vehicle: saline
  T/C: 104 % of control [9 of 10 alive]
dose: 125.0 mg/kg/injection, schedule: Q01DX010 (sc), vehicle: saline
  T/C: 102 % of control [8 of 10 alive]
dose: 250.0 mg/kg/injection, schedule: Q01DX010 (sc), vehicle: saline
  T/C: 97 % of control [9 of 10 alive]

## CC(Cl)CN(CC(C)Cl)C(=O)OCC(N)C(=O)O (stereo unspecified)
dose: 67.0 mg/kg/injection, schedule: Q01DX028 (sc), vehicle: carboxymethylcellulose (CMC)
  T/C: 92 % of control [8 of 10 alive]
dose: 125.0 mg/kg/injection, schedule: Q01DX028 (sc), vehicle: carboxymethylcellulose (CMC)
  T/C: 107 % of control [9 of 10 alive]
dose: 250.0 mg/kg/injection, schedule: Q01DX028 (sc), vehicle: carboxymethylcellulose (CMC)
  T/C: 100 % of control
dose: 500.0 mg/kg/injection, schedule: Q01DX028 (sc), vehicle: carboxymethylcellulose (CMC)
  T/C: 97 % of control [7 of 10 alive]

## CC[C@@H](C)[C@@H]1NC(=O)/C(=C(\C)O)C1=O.c1ccc(CNCCNCc2ccccc2)cc1
dose: 6.3 mg/kg/injection, schedule: Q01DX028 (sc), vehicle: saline
  T/C: 95 % of control [8 of 12 alive]
dose: 12.5 mg/kg/injection, schedule: Q01DX028 (sc), vehicle: saline
  survivor count: 5 of 12
dose: 25.0 mg/kg/injection, schedule: Q01DX028 (sc), vehicle: saline
  survivor count: 6 of 12
dose: 50.0 mg/kg/injection, schedule: Q01DX028 (sc), vehicle: saline
  survivor count: 2 of 12
